{
  "source": "patent US4760072A",
  "about": "“Solid nedocromil sodium, useful for the removal of obstructed air pathways” (Fisons, plc, priority 1984, dated 1988)",
  "note": "Some of these results come from one statement about several compounds together.",
  "data": [
    {"test": "Solid form produced by precipitation process", "type": "physicochemical", "experimental": "Twenty grams of the nedocromil sodium were dissolved in 60 ml of deionised water and 180 ml of isopropyl alcohol by heating to reflux at 81° C. To this solution was then added a further 190 ml of isopropanol (temperature 25° C.) with agitation. The crystal slurry was then cooled in air, maintaining agitation, until a temperature of 25° C. had been reached. The crystals were then filtered on a Buchner filter, using a terylene filter cloth. The filter cake was washed with a displacement volume of isopropanol and filtered further. The cake was then dried in an oven, at atmospheric pressure and 60° C., to constant weight.\n1 Kg of nedocromil sodium is dissolved in three liters of deionised water and six liters of isopropanol at 30° C., and the mixture is then heated to reflux (at 81° C.) with agitation to ensure dissolution. The resulting solution is cooled slightly to about 75° C. and then added to another 12.5 liters of isopropanol at a temperature of about -8° C., as quickly as possible. This precipitates out most of the nedocromil sodium and produces a slurry. This slurry is then stirred and cooled to 25° C. over about an hour, to precipitate out further material. The temperature of the slurry is kept at 25° C. and the slurry filtered as soon as possible to remove the mother liquor, and then dried to constant weight at 60° C.\nTwenty grams of nedocromil sodium were mixed with 60 ml of de-ionised water and 180 ml isopropanol in a 700 ml reaction flask. The mixture was agitated with an anchor-type stirrer at 120 rpm, and heated to its boiling point at around 80° C. The flask was fitted with a water-cooled condenser to prevent escape of isopropanol vapour. The resulting solution was refluxed for about 10 minutes to ensure complete dissolution. The hot solution of nedocromil sodium was then cooled to 75° C. and then added in about 20 seconds to 190 ml of isopropanol at 8° C. The resulting slurry was stirred with the anchor agitator and cooled to 25° C. in the reaction flask. The time taken for cooling was about 45 minutes and throughout this time the crystal slurry remained as the pale yellow, free flowing form. The slurry was then filtered on a Buchner filter using terylene filter cloth, washed with about 50 ml isopropanol and dried in an oven at 60° C. to constant weight. The resulting dried material was Apex milled, and micronised in a fluid energy mill. The nedocromil sodium was then subjected to particle size analysis by the Joyce-Loebl disc centrifuge method.\nTwenty grams of crude nedocromil sodium were mixed with 60 ml of deionised water and 120 ml isopropanol in a 700 ml flask. The mixture was agitated with an anchor-type stirrer at 120 rpm, and heated to its boiling point. […]", "values": [
      {"smiles": "CCCc1c2oc(C(=O)O)cc(=O)c2cc2c(=O)cc(C(=O)O)n(CC)c12", "note": "[Example 2]", "form of nedocromil sodium produced": "form A"},
      {"smiles": "CCCc1c2oc(C(=O)O)cc(=O)c2cc2c(=O)cc(C(=O)O)n(CC)c12", "note": "[Example 3]", "form of nedocromil sodium produced": "form A"},
      {"smiles": "CCCc1c2oc(C(=O)O)cc(=O)c2cc2c(=O)cc(C(=O)O)n(CC)c12", "note": "[Example 4]", "form of nedocromil sodium produced": "form A"},
      {"smiles": "CCCc1c2oc(C(=O)O)cc(=O)c2cc2c(=O)cc(C(=O)O)n(CC)c12", "note": "[Example 5]", "form of nedocromil sodium produced": "form A"}
    ]}
  ]
}
